# Results published in the supplement of paper PMC10849652.
# Protein sequences, listed by entry. Tags and fused reporters are not part of them. Lines headed by an entry give the natural chain unless they say otherwise; changes in a name come on top.
# UniProt Q7L2Z9: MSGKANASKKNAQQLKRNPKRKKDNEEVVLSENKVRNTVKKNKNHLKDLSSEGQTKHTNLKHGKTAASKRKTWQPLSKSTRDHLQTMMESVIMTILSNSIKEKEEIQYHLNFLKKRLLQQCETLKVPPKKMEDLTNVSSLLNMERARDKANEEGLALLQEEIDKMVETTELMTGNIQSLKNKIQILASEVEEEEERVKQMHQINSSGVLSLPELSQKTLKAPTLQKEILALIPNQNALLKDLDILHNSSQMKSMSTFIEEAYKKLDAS
# UniProt Q6P2H3: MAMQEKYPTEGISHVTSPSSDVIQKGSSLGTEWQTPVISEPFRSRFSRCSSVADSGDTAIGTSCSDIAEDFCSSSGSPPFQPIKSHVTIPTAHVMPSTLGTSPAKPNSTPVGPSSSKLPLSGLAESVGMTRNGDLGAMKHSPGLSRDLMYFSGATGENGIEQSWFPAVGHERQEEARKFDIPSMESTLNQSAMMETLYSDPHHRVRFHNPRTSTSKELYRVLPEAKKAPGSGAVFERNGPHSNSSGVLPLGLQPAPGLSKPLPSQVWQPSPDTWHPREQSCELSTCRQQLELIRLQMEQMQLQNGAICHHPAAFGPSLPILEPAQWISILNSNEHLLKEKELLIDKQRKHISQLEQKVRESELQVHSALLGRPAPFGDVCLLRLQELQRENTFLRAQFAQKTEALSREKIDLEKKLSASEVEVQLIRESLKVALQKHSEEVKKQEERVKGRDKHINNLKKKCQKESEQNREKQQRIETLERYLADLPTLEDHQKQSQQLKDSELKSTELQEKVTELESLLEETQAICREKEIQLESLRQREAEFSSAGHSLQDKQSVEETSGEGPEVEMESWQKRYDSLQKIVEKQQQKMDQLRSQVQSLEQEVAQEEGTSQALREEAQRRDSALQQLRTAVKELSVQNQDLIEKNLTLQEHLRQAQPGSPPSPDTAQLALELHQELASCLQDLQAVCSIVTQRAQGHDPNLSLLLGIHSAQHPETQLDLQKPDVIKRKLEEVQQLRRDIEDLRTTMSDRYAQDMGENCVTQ
# UniProt Q9HC77: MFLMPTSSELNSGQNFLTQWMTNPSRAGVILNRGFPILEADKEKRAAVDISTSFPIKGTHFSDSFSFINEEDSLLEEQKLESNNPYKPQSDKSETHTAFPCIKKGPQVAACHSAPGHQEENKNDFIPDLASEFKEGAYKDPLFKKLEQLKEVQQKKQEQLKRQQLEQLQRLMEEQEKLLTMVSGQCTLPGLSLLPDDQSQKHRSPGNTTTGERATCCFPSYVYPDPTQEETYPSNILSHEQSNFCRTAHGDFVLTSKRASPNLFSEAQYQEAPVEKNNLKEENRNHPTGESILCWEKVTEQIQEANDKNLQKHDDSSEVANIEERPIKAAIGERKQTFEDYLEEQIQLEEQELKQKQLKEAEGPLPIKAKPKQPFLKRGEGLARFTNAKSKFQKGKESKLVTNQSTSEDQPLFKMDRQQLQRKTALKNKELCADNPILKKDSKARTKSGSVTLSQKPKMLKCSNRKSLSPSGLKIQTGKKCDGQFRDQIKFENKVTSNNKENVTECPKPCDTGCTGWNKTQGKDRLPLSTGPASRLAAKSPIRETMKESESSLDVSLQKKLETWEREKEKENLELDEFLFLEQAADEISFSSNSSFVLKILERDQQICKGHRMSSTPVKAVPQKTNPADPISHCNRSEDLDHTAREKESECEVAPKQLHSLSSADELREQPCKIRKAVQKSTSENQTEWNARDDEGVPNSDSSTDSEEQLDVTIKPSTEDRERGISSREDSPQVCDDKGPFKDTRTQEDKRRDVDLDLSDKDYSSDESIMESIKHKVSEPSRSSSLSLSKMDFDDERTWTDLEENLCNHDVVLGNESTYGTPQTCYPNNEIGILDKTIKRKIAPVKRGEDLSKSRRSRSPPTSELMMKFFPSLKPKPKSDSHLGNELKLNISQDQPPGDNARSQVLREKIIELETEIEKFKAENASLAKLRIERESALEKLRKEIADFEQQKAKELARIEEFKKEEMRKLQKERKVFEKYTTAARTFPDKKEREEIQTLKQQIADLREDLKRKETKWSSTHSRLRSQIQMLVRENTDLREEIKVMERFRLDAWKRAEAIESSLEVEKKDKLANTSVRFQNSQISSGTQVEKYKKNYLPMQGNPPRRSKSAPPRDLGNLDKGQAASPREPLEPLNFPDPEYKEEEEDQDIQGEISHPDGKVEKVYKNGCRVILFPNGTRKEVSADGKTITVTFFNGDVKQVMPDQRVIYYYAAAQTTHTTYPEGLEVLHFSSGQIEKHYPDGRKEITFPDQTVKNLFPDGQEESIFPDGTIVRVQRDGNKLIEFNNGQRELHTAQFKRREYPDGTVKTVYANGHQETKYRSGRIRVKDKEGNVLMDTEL
# UniProt Q03701: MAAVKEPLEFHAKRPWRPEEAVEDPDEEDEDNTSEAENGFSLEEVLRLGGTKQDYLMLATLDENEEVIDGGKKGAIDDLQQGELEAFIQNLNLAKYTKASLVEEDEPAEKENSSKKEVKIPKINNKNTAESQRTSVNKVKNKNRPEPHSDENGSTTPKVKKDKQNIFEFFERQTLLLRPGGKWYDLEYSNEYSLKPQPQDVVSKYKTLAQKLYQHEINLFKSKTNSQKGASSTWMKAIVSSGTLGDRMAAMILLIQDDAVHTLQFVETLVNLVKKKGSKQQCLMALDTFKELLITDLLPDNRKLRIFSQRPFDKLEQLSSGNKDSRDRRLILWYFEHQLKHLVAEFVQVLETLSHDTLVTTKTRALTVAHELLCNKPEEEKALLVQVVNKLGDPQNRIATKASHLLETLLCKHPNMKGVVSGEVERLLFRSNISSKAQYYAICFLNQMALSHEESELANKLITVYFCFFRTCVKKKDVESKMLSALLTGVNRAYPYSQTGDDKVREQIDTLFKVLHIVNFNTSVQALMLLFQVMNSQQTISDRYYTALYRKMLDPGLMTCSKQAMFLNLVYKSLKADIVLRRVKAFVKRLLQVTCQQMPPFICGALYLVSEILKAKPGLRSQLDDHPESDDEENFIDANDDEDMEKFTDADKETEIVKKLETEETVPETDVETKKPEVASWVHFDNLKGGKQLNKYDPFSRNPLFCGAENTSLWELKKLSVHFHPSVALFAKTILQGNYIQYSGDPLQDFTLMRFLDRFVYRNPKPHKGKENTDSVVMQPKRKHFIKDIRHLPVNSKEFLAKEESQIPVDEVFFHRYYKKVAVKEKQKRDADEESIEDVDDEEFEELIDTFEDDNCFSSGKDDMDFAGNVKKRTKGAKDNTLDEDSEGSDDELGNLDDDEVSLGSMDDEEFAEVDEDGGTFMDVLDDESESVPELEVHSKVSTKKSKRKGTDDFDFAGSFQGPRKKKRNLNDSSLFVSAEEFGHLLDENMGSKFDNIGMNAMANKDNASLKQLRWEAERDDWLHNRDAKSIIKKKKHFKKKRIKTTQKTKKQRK
# UniProt Q6DT37: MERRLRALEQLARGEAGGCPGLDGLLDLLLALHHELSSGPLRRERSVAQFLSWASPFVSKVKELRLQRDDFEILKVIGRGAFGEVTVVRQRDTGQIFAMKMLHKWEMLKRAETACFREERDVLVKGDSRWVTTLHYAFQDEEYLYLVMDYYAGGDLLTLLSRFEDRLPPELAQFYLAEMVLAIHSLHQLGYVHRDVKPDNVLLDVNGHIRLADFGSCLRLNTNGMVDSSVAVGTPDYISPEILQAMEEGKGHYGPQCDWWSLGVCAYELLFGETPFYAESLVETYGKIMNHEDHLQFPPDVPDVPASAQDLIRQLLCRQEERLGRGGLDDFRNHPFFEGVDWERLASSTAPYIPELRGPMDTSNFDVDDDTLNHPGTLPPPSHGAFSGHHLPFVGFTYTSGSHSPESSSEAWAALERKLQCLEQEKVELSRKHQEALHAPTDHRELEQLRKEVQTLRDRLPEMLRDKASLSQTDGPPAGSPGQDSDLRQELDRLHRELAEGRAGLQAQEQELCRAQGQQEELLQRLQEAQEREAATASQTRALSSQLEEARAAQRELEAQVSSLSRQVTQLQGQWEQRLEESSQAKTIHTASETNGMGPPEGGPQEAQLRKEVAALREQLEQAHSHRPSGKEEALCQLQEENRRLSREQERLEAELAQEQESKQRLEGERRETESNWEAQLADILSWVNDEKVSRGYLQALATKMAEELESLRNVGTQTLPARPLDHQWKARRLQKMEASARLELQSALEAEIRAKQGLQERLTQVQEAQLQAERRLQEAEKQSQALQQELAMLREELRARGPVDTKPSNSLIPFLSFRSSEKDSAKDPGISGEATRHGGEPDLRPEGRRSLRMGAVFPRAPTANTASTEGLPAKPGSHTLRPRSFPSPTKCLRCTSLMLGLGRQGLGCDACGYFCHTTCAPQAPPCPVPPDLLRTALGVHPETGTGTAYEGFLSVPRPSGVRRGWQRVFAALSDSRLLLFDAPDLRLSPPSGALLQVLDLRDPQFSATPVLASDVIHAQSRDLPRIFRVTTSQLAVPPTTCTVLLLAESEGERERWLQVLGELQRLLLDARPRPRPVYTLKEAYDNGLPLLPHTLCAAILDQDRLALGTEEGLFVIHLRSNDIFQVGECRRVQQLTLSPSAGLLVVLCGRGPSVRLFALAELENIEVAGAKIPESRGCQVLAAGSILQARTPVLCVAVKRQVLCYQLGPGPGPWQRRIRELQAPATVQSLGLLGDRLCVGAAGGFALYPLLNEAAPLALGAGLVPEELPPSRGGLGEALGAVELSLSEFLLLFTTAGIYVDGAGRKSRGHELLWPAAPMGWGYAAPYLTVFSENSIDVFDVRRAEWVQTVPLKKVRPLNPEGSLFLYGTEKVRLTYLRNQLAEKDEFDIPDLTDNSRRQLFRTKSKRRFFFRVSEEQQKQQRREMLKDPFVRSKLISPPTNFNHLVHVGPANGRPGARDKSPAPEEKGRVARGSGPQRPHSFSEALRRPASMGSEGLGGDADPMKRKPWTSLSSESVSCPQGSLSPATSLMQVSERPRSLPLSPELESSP
# UniProt Q86XR8: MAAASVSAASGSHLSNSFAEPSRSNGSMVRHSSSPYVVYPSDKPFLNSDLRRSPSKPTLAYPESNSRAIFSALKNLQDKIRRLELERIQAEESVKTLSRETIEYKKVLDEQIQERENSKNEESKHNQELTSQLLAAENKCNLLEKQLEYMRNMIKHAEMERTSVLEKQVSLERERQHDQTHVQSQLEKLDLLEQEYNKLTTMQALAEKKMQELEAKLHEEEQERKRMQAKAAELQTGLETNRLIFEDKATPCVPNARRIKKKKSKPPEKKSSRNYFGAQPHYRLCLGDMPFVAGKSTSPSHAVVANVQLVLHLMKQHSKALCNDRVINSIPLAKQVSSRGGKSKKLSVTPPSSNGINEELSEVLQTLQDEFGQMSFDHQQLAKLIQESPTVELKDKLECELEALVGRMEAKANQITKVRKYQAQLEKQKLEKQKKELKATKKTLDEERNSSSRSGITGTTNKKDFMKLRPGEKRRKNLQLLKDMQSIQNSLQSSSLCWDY
# UniProt Q86WJ1: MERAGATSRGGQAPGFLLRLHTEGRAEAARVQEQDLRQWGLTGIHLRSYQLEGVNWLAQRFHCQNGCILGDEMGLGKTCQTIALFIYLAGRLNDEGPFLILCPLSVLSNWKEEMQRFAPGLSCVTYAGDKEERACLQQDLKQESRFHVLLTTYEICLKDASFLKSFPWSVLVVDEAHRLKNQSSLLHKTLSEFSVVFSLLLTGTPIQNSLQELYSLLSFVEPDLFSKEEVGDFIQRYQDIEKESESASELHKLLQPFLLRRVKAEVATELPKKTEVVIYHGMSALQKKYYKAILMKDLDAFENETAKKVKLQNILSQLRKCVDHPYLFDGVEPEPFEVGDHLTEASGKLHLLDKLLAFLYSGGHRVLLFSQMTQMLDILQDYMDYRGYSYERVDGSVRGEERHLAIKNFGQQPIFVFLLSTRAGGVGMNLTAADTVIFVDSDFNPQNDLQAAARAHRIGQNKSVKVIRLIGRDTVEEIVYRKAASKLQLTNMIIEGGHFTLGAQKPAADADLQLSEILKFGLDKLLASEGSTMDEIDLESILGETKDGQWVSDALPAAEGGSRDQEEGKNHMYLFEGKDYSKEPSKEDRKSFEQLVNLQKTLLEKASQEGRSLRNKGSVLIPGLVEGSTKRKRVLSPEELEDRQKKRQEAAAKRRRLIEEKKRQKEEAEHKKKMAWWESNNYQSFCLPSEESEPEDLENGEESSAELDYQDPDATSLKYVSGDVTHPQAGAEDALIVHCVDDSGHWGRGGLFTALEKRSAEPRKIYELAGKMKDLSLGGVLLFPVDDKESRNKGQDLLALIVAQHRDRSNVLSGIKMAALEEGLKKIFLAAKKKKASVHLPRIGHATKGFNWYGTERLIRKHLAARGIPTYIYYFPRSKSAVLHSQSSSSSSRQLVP
# This is one part of the list.
# Experiments:
# Assay in all cases: log2 fold change, soluble protein after heating vs DMSO (PISA); higher = thermal stabilisation; K562 cells, 10 uM, 30 min; active = over 0.2 and 3.5 SD of the protein, either way, in both replicates (recomputed)
# [1] = compound: CC1=C(SC2=C1C(=N[C@H](C3=NN=C(N32)C)CC(=O)N)C4=CC=C(C=C4)Cl)C
# Outline: (§1)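 Thermal stability values are relative to control samples and come from duplicates. They are expressed as log2 fold changes. For measurement, K562 cells (2×10^6 cells/mL) received 10 μM compound for 30 min, and aliquots were heated for 3 min over 48°C-58°C, pooled, and extracted at 4°C in PBS with 0.5% NP-40. Soluble protein, the supernatant after 21,000xg for 90 min, was quantified by TMTpro 16plex LC-MS/MS with equalised channel sums.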
# [2] = compound: Cc1sc2c(c1C)C(c1ccc(Cl)cc1)=N[C@@H](CC(=O)OC(C)(C)C)c1nnc(C)n1-2
# Outline: as §1
# [3] = compound: c1ccc([C@@H]2C[C@H]2NC2CCNCC2)cc1
# Outline: as §1
# [4] = compound: C1=CC=C(C=C1)[C@H](COC2=CC3=C(C=C2)NC(=O)N3)NC(=O)C4=CC=CN(C4=O)CC5=CC(=C(C=C5)F)F
# Outline: as §1
# [5] = compound: CC1=C2C(=CC=C1)N=C(N(C2=O)C3=CC=CC=C3C)CN4C=NC5=C(N=CN=C54)N
# Outline: as §1
target,measurement,setting,value
CENPQ (UniProt Q7L2Z9),log2 fold change,[1],inactive: -0.044
same,log2 fold change,[2],inactive: -0.035
same,log2 fold change,[3],inactive: 0.053
CEP85 (UniProt Q6P2H3),log2 fold change,[4],inactive: -0.164
same,log2 fold change,[5],inactive: 0.043
CEP350 (UniProt Q5VT06),log2 fold change,[1],inactive: -0.049
same,log2 fold change,[2],inactive: -0.001
same,log2 fold change,[3],inactive: -0.056
CENPJ (UniProt Q9HC77),log2 fold change,[2],inactive: 0.055
CEBPZ (UniProt Q03701),log2 fold change,[1],inactive: -0.172
same,log2 fold change,[5],inactive: -0.07
same,log2 fold change,[2],inactive: -0.561
same,log2 fold change,[3],inactive: -0.041
CDC42BPG (UniProt Q6DT37),log2 fold change,[5],inactive: -0.24
CEP57 (UniProt Q86XR8),log2 fold change,[1],inactive: -0.157
same,log2 fold change,[3],inactive: -0.115
CHAF1A (UniProt Q13111),log2 fold change,[4],inactive: 0.045
same,log2 fold change,[1],inactive: -0.026
same,log2 fold change,[3],inactive: -0.045
CHD1L (UniProt Q86WJ1),log2 fold change,[5],inactive: 0.063

# Another view of part of the listing above.
target | measurement | setting | value
CENPQ (UniProt Q7L2Z9) | log2 fold change | [3] | inactive: 0.053
CEP85 (UniProt Q6P2H3) | log2 fold change | [4] | inactive: -0.164
